{"source": "PubChem BioAssay AID1259290 – Sanger Institute – 2017", "screen": "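siRNA screen across the kinome seeking synthetic lethal partners for BYL719, cetuximab or trametinib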 (primary screen)", "cell system": "human SNUC1 colorectal cancer cells", "reagents": "siRNA pool against human genes", "conditions": "anchor drugs BYL719 1 µM, cetuximab 5 µg/ml or trametinib 10 nM, or DMSO vehicle alone", "measurement": "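Cell viability relative to a non-targeting siRNA control, replicate-averaged, as robust z-score for knock-down alone, plus a synergy score for each anchor drug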", "scale": "viability z-score, siRNA alone: higher = more viable cells; low values mean essential gene", "active means": "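Essential when the robust viability z-score with siRNA alone falls below -3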", "meaning of the calls": "active = essential: knock-down alone cut viability (z below -3); inactive = no clear viability loss with knock-down alone", "note": "The deposit covers 794 reagents; below is a random part of them. 9 of them (1.1%) were called active. 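Calls rest on knock-down alone, not drug synergy; synergy above 0.15 was grouped apart and does not affect calls.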 Not all columns of the deposit are shown. Reagent sequences are not shown. Not given: the amount of reagent, the time to read-out."}
{"target gene":"IRAK4","viability z-score, siRNA alone":0.936,"activity call":"inactive"}
{"target gene":"TK2","viability z-score, siRNA alone":-0.727,"activity call":"inactive"}
{"target gene":"EFNB3","viability z-score, siRNA alone":-1.02,"activity call":"inactive"}
{"target gene":"STK17B","viability z-score, siRNA alone":-1.94,"activity call":"inactive"}
{"target gene":"ANKK1","viability z-score, siRNA alone":0.122,"activity call":"inactive"}
{"target gene":"GRK6","viability z-score, siRNA alone":-1.2,"activity call":"inactive"}
{"target gene":"CDKL1","viability z-score, siRNA alone":0.213,"activity call":"inactive"}
{"target gene":"ARID1A","viability z-score, siRNA alone":0.309,"activity call":"inactive"}
{"target gene":"GRK2","viability z-score, siRNA alone":0.0791,"activity call":"inactive"}
{"target gene":"BPTF","viability z-score, siRNA alone":-0.85,"activity call":"inactive"}
{"target gene":"MAPK6","viability z-score, siRNA alone":0.892,"activity call":"inactive"}
{"target gene":"RPS6KC1","viability z-score, siRNA alone":-0.6,"activity call":"inactive"}
{"target gene":"DGKI","viability z-score, siRNA alone":-1.33,"activity call":"inactive"}
{"target gene":"DYRK1B","viability z-score, siRNA alone":-0.554,"activity call":"inactive"}
{"target gene":"STK32A","viability z-score, siRNA alone":0.936,"activity call":"inactive"}
{"target gene":"MAP3K21","viability z-score, siRNA alone":-0.985,"activity call":"inactive"}
{"target gene":"PDK1","viability z-score, siRNA alone":0.936,"activity call":"inactive"}
{"target gene":"AKT2","viability z-score, siRNA alone":-0.392,"activity call":"inactive"}
{"target gene":"NRBP2","viability z-score, siRNA alone":-1.25,"activity call":"inactive"}
{"target gene":"PI4K2B","viability z-score, siRNA alone":0.152,"activity call":"inactive"}
{"target gene":"EPHB6","viability z-score, siRNA alone":0.292,"activity call":"inactive"}
{"target gene":"PHKG2","viability z-score, siRNA alone":0.936,"activity call":"inactive"}
{"target gene":"PIK3R2","viability z-score, siRNA alone":0.278,"activity call":"inactive"}
{"target gene":"RAF1","viability z-score, siRNA alone":0.734,"activity call":"inactive"}
{"target gene":"DYRK4","viability z-score, siRNA alone":-1.29,"activity call":"inactive"}
{"target gene":"SGK1","viability z-score, siRNA alone":0.648,"activity call":"inactive"}
{"target gene":"MAP2K2","viability z-score, siRNA alone":0.936,"activity call":"inactive"}
{"target gene":"CAMK2N1","viability z-score, siRNA alone":-0.708,"activity call":"inactive"}
{"target gene":"PTPRU","viability z-score, siRNA alone":-0.857,"activity call":"inactive"}
{"target gene":"MAPK13","viability z-score, siRNA alone":0.936,"activity call":"inactive"}
{"target gene":"CHKB","viability z-score, siRNA alone":-0.417,"activity call":"inactive"}
{"target gene":"PRKD2","viability z-score, siRNA alone":-3.72,"activity call":"active"}
{"target gene":"STKLD1","viability z-score, siRNA alone":0.936,"activity call":"inactive"}
{"target gene":"DAPK1","viability z-score, siRNA alone":-0.137,"activity call":"inactive"}
{"target gene":"PFKM","viability z-score, siRNA alone":0.936,"activity call":"inactive"}
{"target gene":"EPHA7","viability z-score, siRNA alone":-0.646,"activity call":"inactive"}

3 of these entries in another layout.
MAP3K21
- viability z-score, siRNA alone: -0.985
- activity call: inactive

PDK1
- viability z-score, siRNA alone: 0.936
- activity call: inactive

AKT2
- viability z-score, siRNA alone: -0.392
- activity call: inactive
